Results from the RepoRT retention time repository (doi:10.1021/acs.analchem.1c00972).

Experiments:
[1] = RP, Waters ACQUITY UPLC BEH C18, 100 × 1 mm, 1.7 µm, 50 °C, 0.3 mL/min, estimated dead time 0.17 min; A: water + 10 mM ammonium bicarbonate; B: 10% water + 90% methanol + 10 mM ammonium bicarbonate; gradient (min/%B) 0/0 15/100 21/100 22/0 30/0; settings: stereoisomer not certain
[2] = RP, Waters ACQUITY UPLC BEH C18, 100 × 1 mm, 1.7 µm, 50 °C, 0.3 mL/min, estimated dead time 0.17 min; A: water + 0.1% formic acid + 20 mM ammonium formate; B: methanol + 0.1% formic acid + 20 mM ammonium formate; gradient (min/%B) 0/0 15/100 21/100 22/0 30/0; settings: stereoisomer not certain

Structure (SMILES): CC(C)(C)c1ccc(O)cc1 [4-tert-Butylphenol]
- LC retention time [1]: 14.4 min
- LC retention time [2]: 10.8 min
